Data on three substances can be found in article PMC13375126.

Amino acid sequences for entries named in this document (tags omitted). A change or cut given only in a name is not applied to a line headed by its entry.
UniProt A0A640KN15: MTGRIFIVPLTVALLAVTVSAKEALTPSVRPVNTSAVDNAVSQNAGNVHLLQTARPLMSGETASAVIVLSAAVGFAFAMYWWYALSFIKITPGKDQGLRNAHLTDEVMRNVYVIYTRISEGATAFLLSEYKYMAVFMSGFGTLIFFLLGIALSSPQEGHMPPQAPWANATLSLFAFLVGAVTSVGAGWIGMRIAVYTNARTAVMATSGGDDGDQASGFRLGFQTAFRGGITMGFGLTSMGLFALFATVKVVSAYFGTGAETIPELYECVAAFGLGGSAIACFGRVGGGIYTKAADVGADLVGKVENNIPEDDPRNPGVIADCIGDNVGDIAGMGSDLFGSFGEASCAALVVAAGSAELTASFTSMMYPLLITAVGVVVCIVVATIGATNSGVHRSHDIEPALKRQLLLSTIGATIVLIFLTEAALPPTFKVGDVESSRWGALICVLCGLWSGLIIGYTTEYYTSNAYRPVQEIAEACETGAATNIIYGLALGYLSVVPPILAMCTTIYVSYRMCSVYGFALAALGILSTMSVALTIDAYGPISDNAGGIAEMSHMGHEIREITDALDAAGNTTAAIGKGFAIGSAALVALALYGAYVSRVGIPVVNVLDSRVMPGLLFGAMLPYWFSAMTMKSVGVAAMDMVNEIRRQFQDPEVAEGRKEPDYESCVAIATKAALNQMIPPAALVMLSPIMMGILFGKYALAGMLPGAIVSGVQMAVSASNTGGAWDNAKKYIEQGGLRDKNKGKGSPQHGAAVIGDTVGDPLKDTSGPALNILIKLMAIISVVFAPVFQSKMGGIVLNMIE
UniProt A0A640KW67: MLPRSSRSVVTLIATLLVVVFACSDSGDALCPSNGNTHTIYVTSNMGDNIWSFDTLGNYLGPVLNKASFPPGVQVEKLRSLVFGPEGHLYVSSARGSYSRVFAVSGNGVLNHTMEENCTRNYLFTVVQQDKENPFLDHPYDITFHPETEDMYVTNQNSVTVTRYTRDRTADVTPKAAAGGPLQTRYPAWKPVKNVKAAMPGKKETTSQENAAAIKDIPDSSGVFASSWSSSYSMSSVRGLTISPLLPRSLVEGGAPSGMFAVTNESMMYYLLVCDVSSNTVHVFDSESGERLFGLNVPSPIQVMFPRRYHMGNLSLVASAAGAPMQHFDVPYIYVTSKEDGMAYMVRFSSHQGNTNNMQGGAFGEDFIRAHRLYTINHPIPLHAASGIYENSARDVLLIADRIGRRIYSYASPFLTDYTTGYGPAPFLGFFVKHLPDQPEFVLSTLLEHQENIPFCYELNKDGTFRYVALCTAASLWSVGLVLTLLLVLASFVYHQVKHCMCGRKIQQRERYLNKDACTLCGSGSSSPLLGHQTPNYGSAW

The target of this experiment is T1, mNG-LtVtc4 (L. tarentolae).
T1 sequence: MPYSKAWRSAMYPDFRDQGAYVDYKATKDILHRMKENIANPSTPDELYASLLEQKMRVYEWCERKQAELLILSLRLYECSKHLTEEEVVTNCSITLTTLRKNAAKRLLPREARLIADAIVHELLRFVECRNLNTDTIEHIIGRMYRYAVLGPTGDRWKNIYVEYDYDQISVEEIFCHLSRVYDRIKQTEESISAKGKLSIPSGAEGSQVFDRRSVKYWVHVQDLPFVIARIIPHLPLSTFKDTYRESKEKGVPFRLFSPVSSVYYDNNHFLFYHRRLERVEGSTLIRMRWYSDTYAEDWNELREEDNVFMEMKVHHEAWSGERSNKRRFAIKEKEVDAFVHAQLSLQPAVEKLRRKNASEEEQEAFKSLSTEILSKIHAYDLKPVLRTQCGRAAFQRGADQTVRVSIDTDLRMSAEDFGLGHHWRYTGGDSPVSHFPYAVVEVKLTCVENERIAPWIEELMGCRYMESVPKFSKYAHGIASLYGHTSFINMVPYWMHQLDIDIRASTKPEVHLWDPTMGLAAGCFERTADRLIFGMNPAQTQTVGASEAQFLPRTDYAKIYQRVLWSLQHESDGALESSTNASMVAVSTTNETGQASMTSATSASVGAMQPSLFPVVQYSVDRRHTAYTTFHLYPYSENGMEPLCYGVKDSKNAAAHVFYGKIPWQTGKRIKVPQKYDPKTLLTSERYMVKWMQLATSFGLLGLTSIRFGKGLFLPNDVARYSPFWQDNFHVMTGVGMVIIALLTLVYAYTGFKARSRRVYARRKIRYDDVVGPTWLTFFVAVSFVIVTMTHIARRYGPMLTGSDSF
Nature of the experiment: pull-down; mNeonGreen-Trap agarose beads capture mNG-LtVtc4 from 1% DDM-solubilised lysate of L. tarentolae that also express the mCh-tagged candidate; overnight, 4 °C; 50 mM HEPES pH 7.5, 150 mM NaCl, 1 mM IP6, 1 mM DTT; washes with 0.05% DDM; SDS-PAGE with in-gel fluorescence.

Results are given in words; binding and its absence hold for the method and conditions named. In cells and extracts the contact can be indirect. Binding can be weak; no strength is given.

In the case of mCh-LtmPPase (from UniProt A0A640KN15), the binding result is listed as “no binding”. mCh-LtVBP2 (from UniProt A0A640KW67): the binding result is recorded as “binds”. The value for mCh-IP3R (L. tarentolae) was “no binding”.
